# Experimental data: patent US5770380A (priority 1996, dated 1998)
# Experiment: general procedure: peptide synthesis; oxime resin; DCC/SuOH (fragment couplings); TBTU/DMAP (cyclisation)
Substance,step yield (late stage modification step),further results
cyclo-(Gly-Asp(OBut)-Gly-Asp(OBut)-3Am5nb),–,cyclisation yield (cyclisation step): 70%
cyclo-(Gly-Asp(OcHx)-Gly-Asp(OcHx)-3Am5ab),100%,"isolated yield (whole synthesis, from resin): 17%"
"PEPTIDE1{G.D.G.D.[3Am5ab]}|PEPTIDE2{G.D.G.D.[3Am5ab]}|PEPTIDE3{G.D.G.D.[3Am5ab]}|PEPTIDE4{G.D.G.D.[3Am5ab]}|CHEM1{[BuOCalix4CO4]}$PEPTIDE1,PEPTIDE1,1:R1-5:R2|PEPTIDE2,PEPTIDE2,1:R1-5:R2|PEPTIDE3,PEPTIDE3,1:R1-5:R2|PEPTIDE4,PEPTIDE4,1:R1-5:R2|PEPTIDE1,CHEM1,5:R3-1:R1|PEPTIDE2,CHEM1,5:R3-1:R2|PEPTIDE3,CHEM1,5:R3-1:R3|PEPTIDE4,CHEM1,5:R3-1:R4$$$V2.0",90%,–
Fmoc-Asp(OBut)-3Am5nb-Gly-Asp(OBut)-Gly-OH,–,step yield (coupling step): 81%
cyclo-(Gly-Asp(OBut)-Gly-Asp(OBut)-3Am5ab),100%,–

# Some peptides are written in HELM: one residue between dots, names in brackets for other building blocks, links after the first $.
